# Data as given in PubChem BioAssay AID330 (DTP/NCI, 2004).
# The list is a part of this screen's results and no random one: it is rich in T/C values a quarter to a half above the control, in often repeated tests (any T/C) and in doses without a T/C. Other doses and runs of a compound stand elsewhere. T/C gives the treated animals as a percentage of the vehicle group. Some entries give survivors of the animals treated and no T/C: the source files T/C as zero there, which appears to mark a toxic dose or a test without result, not a measured value. Some doses without a T/C left all or most animals alive at the check, yet need not have been tolerated: the source hardly ever lists a survival T/C far under the control, and the zero likely stands for such cases as well. Counts of survivors are from the toxicity check (mostly the fifth day) where no day follows; animals may have died later. Schedules are NCI's codes, taken here to give the interval after Q, in days (D) or hours (H), and the number of doses after X. Some schedules carry Z or #; the key to these is not given. For survival time, this PubChem deposit counts one and a half times the control or more as active, and values a quarter to a half above the control carry no call in these data; other NCI protocols may use other cut-offs. Some entries were tested several times; their values stand side by side, smallest first.
# System: P388 leukemia ip, CD2F1 mice, survival T/C
# Test: NCI In Vivo Anticancer Drug Screen. Data for tumor model P388 Leukemia (intraperitoneal) in CD2F1 (CDF1) mice
# Conditions: T/C endpoint: median survival time, higher T/C = longer survival
# [1] = dose: 200.0 mg/kg/injection, schedule: Q04DX003 (ip), vehicle: saline
# [2] = dose: 400.0 mg/kg/injection, schedule: Q04DX003 (ip), vehicle: saline
# [3] = dose: 50.0 mg/kg/injection, schedule: Q01DX005 (ip), vehicle: saline with Tween-80
# [4] = dose: 50.0 mg/kg/injection, schedule: Q01DX009 (ip), vehicle: Klucel (hydroxypropylcellulose) (HPC)
# [5] = dose: 200.0 mg/kg/injection, schedule: Q01DX009 (ip), vehicle: Klucel (hydroxypropylcellulose) (HPC)
# [6] = dose: 400.0 mg/kg/injection, schedule: Q01DX009 (ip), vehicle: saline with Tween-80
# [7] = dose: 100.0 mg/kg/injection, schedule: Q01DX005 (ip), vehicle: saline with Tween-80
# [8] = dose: 200.0 mg/kg/injection, schedule: Q01DX005 (ip), vehicle: saline with Tween-80
# [9] = dose: 200.0 mg/kg/injection, schedule: Q01DX005 (ip), vehicle: Klucel (hydroxypropylcellulose) (HPC)
# [10] = dose: 400.0 mg/kg/injection, schedule: Q04DX002 (ip), vehicle: saline with Tween-80
# [11] = dose: 200.0 mg/kg/injection, schedule: Q01DX009 (ip), vehicle: water
compound,measurement,setting,value
C(=C\c1cc2cc(C3=NCCN3)ccc2s1)/c1ccc(C2=NCCN2)cc1,T/C,"dose: 6.25 mg/kg/injection, schedule: Q04DX003 (ip), vehicle: saline",125 % of control
same,T/C,"dose: 12.5 mg/kg/injection, schedule: Q04DX003 (ip), vehicle: saline",137 and 142 % of control
same,T/C,"dose: 25.0 mg/kg/injection, schedule: Q04DX003 (ip), vehicle: saline",127 and 137 % of control
same,T/C,"dose: 50.0 mg/kg/injection, schedule: Q04DX003 (ip), vehicle: saline",140 % of control
same,survivor count,"dose: 100.0 mg/kg/injection, schedule: Q04DX003 (ip), vehicle: saline",5 of 6
same,survivor count,[1],0 of 6
same,survivor count,[2],0 of 6
NC(CS(=O)(=O)O)C(=O)O (configuration not stated),survivor count,"dose: 400.0 mg/kg/injection, schedule: Q04DX002 (ip), vehicle: saline",6 of 6
O=NN(CCF)C(=O)Oc1cc(Cl)c(Cl)cc1Cl,T/C,"dose: 6.0 mg/kg/injection, schedule: Q01DX005 (ip), vehicle: saline with Tween-80",130 % of control
same,survivor count,[3],0 of 6
NS(=O)(=O)c1ccc(N=NC2Sc3nc4ccccc4n3C2=O)cc1 (configuration not stated),survivor count,"dose: 240.0 mg/kg/injection, schedule: Q01DX005 (ip), vehicle: Klucel (hydroxypropylcellulose) (HPC)",5 of 6
Fc1ccc(NC(=S)SCc2ccc(Cl)c(Cl)c2)cc1F,T/C,"dose: 25.0 mg/kg/injection, schedule: Q01DX009 (ip), vehicle: Klucel (hydroxypropylcellulose) (HPC)",133 % of control
same,T/C,[4],128 and 133 % of control
same,survivor count,[5],0 of 6
same,survivor count,"dose: 400.0 mg/kg/injection, schedule: Q01DX009 (ip), vehicle: Klucel (hydroxypropylcellulose) (HPC)",0 of 6
CCCCN(CCCC)P(=O)(N1CC1)N1CC1,T/C,"dose: 12.5 mg/kg/injection, schedule: Q01DX009 (ip), vehicle: saline",145 % of control
same,survivor count,"dose: 37.5 mg/kg/injection, schedule: Q01DX009 (ip), vehicle: saline",6 of 6
same,survivor count,[1],2 of 6
same,survivor count,[2],0 of 6
CCCCCCOC(=O)C(O)c1ccccc1 (configuration not stated),survivor count,[6],5 of 6
CN(C)c1ccc(C(=C2C=CC(=[N+](C)C)C=C2)c2ccc(N(C)C)cc2)cc1,T/C,"dose: 0.78 mg/kg/injection, schedule: Q01DX009 (ip), vehicle: saline",128 % of control
same,T/C,"dose: 1.56 mg/kg/injection, schedule: Q01DX009 (ip), vehicle: saline",126 % of control
same,T/C,"dose: 3.12 mg/kg/injection, schedule: Q01DX009 (ip), vehicle: saline",134 % of control
same,survivor count,"dose: 6.25 mg/kg/injection, schedule: Q01DX009 (ip), vehicle: saline",3 of 6
c1cc[c]([Sn]([NH]c2ncnc3[nH]cnc23)([NH]c2ncnc3[nH]cnc23)[c]2ccccc2)cc1,T/C,"dose: 25.0 mg/kg/injection, schedule: Q01DX009 (ip), vehicle: saline",145 % of control
same,T/C,[4],129 % of control
same,T/C,"dose: 50.0 mg/kg/injection, schedule: Q01DX009 (ip), vehicle: saline",141 % of control
same,T/C,"dose: 100.0 mg/kg/injection, schedule: Q01DX009 (ip), vehicle: saline",141 % of control
same,survivor count,[5],0 of 6
CC(=O)NCCc1nc(-c2nc(C(=O)NCCC[S+](C)C)cs2)cs1,survivor count,"dose: 12.5 mg/kg/injection, schedule: Q01DX005 (ip), vehicle: saline with Tween-80",6 of 6
same,survivor count,[3],1 of 6
same,survivor count,[7],0 of 6
same,survivor count,[8],0 of 6
C=CCc1cc(OC)c(OCC=O)c(OC)c1,survivor count,"dose: 400.0 mg/kg/injection, schedule: Q04DX002 (ip), vehicle: Klucel (hydroxypropylcellulose) (HPC)",0 of 6
C(=Nc1ccccc1)C1CCCC[N-]1.C(=Nc1ccccc1)C1CCCC[N-]1.[Cu+2].[O-][Cl+3]([O-])([O-])O (configuration not stated),survivor count,"dose: 37.5 mg/kg/injection, schedule: Q01DX009 (ip), vehicle: saline with Tween-80",0 of 6
same,survivor count,"dose: 75.0 mg/kg/injection, schedule: Q01DX009 (ip), vehicle: saline with Tween-80",4 of 6
same,survivor count,"dose: 100.0 mg/kg/injection, schedule: Q01DX009 (ip), vehicle: saline with Tween-80",6 of 6
same,survivor count,"dose: 200.0 mg/kg/injection, schedule: Q01DX009 (ip), vehicle: saline with Tween-80",4 of 6
N#CC(Br)(C#N)Cc1ccccc1,survivor count,"dose: 100.0 mg/kg/injection, schedule: Q01DX009 (ip), vehicle: Klucel (hydroxypropylcellulose) (HPC)",6 of 6
same,survivor count,[5],4 of 6
COC(=O)CN1C(=O)c2cccc3cc(N)cc(c23)C1=O,survivor count,[3],6 of 6
same,survivor count,[8],6 of 6
CCC(C)(C)C(=O)O,survivor count,[6],4 of 6
O=C1NN=C(c2ccc(Br)cc2)CS1,survivor count,[6],3 of 6
O=C1Nc2c(Cl)cc(Cl)cc2/C1=N/N=C/c1ccccc1O,survivor count,[7],5 of 5
same,survivor count,[8],5 of 5
CCOc1c(N=Nc2ccccc2[N+](=O)[O-])c(C)nn1C(N)=S,survivor count,"dose: 120.0 mg/kg/injection, schedule: Q01DX005 (ip), vehicle: Klucel + Tween-80",0 of 6
same,survivor count,"dose: 240.0 mg/kg/injection, schedule: Q01DX005 (ip), vehicle: Klucel + Tween-80",0 of 6
CC1CCC(C(C)C)C(OC(=O)c2cc[n+](C)cc2)C1 (configuration not stated),survivor count,[9],0 of 6
CCc1cccc2c(NCCCCNc3c4ccccc4nc4c(CC)cccc34)c3ccccc3nc12,survivor count,"dose: 10.0 mg/kg/injection, schedule: Q## X009 (ip), vehicle: lactic acid",4 of 6
same,survivor count,"dose: 20.0 mg/kg/injection, schedule: Q## X009 (ip), vehicle: lactic acid",1 of 6
CN1C2C=C(c3ccc(C(F)(F)F)cc3)CC1CC2 (configuration not stated),survivor count,"dose: 50.0 mg/kg/injection, schedule: Q01DX005 (ip), vehicle: Klucel (hydroxypropylcellulose) (HPC)",3 of 6
same,survivor count,[9],0 of 6
same,survivor count,"dose: 200.0 mg/kg/injection, schedule: Q01DX005 (ip), vehicle: saline",1 of 6
CCN(CC)CCNc1cc(O)c2c(c1O)C(=O)c1ccccc1C2=O,survivor count,"dose: 200.0 mg/kg/injection, schedule: Q04DX002 (ip), vehicle: saline with Tween-80",2 of 5
same,survivor count,[10],0 of 5
O=C(O)CCCCCCC(=O)CCl,survivor count,[1],5 of 6
same,T/C,"dose: 200.0 mg/kg/injection, schedule: Q04DX003 (ip), vehicle: suspension in saline",128 % of control
O=c1c2ccccc2sc2c([N+](=O)[O-])ccc(NCC3CCCN4CCCCC34)c12 (configuration not stated),survivor count,"dose: 308.0 mg/kg/injection, schedule: Q01DX005 (ip), vehicle: saline with Tween-80",3 of 6
CC(=O)CC(C)=NCC(C)N=C(C)CC(C)=O.c1cc[c]([Sn][c]2ccccc2)cc1 (configuration not stated),T/C,"dose: 2.5 mg/kg/injection, schedule: Q01DX009 (ip), vehicle: saline",142 % of control
same,survivor count,"dose: 10.0 mg/kg/injection, schedule: Q01DX009 (ip), vehicle: saline",0 of 6
same,survivor count,"dose: 20.0 mg/kg/injection, schedule: Q01DX009 (ip), vehicle: saline",0 of 6
O=NNc1c2c(nc3ccccc13)CCCC2,survivor count,[11],0 of 6
CCCCc1ccc(-c2nn[nH]n2)nc1,survivor count,[10],0 of 6
C[n+]1cc2cc3c(cc2c2ccccc21)OCO3,T/C,"dose: 3.13 mg/kg/injection, schedule: Q01DX009 (ip), vehicle: water",126 % of control
same,T/C,"dose: 6.25 mg/kg/injection, schedule: Q01DX009 (ip), vehicle: water",129 % of control
same,T/C,"dose: 12.5 mg/kg/injection, schedule: Q01DX009 (ip), vehicle: water",131 and 135 % of control
same,T/C,"dose: 18.8 mg/kg/injection, schedule: Q01DX009 (ip), vehicle: water",144 % of control
same,survivor count,"dose: 50.0 mg/kg/injection, schedule: Q01DX009 (ip), vehicle: water",6 of 6
same,survivor count,"dose: 100.0 mg/kg/injection, schedule: Q01DX009 (ip), vehicle: water",0 of 6
same,survivor count,[11],0 of 6
COc1ccc(C(CC(=O)N(CCCl)CCCl)CC(=O)N(CCCl)CCCl)cc1,survivor count,"dose: 400.0 mg/kg/injection, schedule: Q01DX001 (ip), vehicle: suspension in saline",0 of 6
